Laboratory results as given in paper PMC12631912 (Advanced Science, 2025).

Assay: peptide made by a vendor
Conditions: whole synthesis

## cyclic RGDyK, sequence Arg‐Gly‐Asp‐D‐Phe‐Lys
  purity (crude or final not stated): 95.71%
